Several values for one entry are separate records, joined by “and”; a condition that tells them apart may be missing. Equal entries are not always repeated. At least one read-out could not be matched to a standard name with certainty.
Legend:
Format in all cases: biochemical
KDM4B (JMJD2B) = molecular target: T1, KDM4B (JMJD2B) (Homo sapiens, UniProt O94953); assay: Eurofins histone lysine demethylase panel, enzymatic inhibition, substrate H3K9me3
T1 construct: The enzymatic activity of each of the full length protein was analyzed using known substrates; purchased Eurofins
T1 sequence (O94953 1-1096): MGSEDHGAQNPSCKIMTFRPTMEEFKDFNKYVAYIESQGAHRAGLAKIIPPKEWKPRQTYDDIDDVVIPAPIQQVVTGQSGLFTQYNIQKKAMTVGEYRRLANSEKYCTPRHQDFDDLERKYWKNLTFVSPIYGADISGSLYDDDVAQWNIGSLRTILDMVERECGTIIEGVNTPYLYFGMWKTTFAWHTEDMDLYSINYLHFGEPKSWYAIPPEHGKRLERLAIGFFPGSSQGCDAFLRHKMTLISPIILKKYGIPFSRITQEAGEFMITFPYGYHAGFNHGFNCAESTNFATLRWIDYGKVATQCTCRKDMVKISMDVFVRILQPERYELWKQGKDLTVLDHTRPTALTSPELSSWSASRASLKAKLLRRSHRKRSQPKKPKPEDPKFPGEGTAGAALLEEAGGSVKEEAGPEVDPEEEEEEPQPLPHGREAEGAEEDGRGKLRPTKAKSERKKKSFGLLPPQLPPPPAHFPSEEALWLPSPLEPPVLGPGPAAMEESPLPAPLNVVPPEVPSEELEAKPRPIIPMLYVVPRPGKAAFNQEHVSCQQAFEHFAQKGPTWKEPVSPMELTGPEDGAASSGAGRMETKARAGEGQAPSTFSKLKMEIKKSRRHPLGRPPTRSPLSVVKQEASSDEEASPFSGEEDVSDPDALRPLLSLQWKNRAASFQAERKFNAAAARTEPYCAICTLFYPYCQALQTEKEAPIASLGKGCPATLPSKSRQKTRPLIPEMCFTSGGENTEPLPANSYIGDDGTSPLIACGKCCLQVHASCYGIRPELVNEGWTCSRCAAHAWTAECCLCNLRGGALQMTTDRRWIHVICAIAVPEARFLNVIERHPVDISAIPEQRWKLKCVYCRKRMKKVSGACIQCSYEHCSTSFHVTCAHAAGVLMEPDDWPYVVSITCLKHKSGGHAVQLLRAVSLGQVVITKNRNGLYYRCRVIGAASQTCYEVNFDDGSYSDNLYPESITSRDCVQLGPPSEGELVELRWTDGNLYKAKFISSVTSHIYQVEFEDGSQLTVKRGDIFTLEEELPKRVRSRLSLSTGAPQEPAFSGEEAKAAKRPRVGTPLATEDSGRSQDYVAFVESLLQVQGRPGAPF

Sequences of proteins named here, by UniProt entry; tags and fusion partners are left off. A change or cut given only in a name is not applied to a line headed by its entry.
UniProt P29375: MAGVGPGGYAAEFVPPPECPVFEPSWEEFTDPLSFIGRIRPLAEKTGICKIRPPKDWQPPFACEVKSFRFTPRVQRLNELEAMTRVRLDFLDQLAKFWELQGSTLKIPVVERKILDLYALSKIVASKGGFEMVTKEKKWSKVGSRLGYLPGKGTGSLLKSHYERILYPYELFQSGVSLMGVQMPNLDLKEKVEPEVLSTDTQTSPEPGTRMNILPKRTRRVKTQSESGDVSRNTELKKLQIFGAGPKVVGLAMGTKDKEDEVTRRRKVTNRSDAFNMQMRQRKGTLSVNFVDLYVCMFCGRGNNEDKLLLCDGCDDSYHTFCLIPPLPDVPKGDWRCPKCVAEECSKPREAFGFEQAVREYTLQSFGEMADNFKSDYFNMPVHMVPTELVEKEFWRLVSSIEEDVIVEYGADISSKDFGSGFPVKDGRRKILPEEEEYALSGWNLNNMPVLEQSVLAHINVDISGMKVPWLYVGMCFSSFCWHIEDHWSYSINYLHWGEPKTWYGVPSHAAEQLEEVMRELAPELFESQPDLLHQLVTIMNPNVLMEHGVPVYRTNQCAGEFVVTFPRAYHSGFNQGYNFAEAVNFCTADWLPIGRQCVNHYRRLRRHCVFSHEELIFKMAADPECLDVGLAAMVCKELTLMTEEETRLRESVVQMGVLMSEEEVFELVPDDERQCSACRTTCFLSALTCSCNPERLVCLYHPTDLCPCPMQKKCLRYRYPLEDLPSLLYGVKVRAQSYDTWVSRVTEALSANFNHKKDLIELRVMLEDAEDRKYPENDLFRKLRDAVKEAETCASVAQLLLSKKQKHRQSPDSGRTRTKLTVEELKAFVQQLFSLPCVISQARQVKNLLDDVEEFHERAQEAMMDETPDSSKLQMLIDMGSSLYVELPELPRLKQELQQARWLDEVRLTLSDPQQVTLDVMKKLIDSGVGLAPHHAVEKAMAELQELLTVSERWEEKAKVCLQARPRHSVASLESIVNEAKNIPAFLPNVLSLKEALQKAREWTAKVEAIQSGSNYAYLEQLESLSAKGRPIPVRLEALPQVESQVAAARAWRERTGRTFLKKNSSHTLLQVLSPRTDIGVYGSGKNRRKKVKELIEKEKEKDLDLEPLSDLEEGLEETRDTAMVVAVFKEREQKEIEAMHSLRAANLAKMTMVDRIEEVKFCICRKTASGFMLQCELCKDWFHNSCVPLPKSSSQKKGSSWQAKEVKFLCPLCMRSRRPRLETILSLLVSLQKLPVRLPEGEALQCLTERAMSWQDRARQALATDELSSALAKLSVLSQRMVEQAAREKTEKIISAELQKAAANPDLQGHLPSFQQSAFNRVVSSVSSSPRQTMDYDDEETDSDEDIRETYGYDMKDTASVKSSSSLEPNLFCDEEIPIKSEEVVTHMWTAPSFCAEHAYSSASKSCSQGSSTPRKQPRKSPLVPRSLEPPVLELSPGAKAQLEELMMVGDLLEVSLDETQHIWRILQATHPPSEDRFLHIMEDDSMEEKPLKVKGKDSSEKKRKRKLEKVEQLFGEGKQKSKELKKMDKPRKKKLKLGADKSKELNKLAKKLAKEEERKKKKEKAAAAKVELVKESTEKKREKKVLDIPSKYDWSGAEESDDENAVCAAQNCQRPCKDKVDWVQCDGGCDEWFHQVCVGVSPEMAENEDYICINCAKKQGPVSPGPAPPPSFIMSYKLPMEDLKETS
UniProt Q7LBC6: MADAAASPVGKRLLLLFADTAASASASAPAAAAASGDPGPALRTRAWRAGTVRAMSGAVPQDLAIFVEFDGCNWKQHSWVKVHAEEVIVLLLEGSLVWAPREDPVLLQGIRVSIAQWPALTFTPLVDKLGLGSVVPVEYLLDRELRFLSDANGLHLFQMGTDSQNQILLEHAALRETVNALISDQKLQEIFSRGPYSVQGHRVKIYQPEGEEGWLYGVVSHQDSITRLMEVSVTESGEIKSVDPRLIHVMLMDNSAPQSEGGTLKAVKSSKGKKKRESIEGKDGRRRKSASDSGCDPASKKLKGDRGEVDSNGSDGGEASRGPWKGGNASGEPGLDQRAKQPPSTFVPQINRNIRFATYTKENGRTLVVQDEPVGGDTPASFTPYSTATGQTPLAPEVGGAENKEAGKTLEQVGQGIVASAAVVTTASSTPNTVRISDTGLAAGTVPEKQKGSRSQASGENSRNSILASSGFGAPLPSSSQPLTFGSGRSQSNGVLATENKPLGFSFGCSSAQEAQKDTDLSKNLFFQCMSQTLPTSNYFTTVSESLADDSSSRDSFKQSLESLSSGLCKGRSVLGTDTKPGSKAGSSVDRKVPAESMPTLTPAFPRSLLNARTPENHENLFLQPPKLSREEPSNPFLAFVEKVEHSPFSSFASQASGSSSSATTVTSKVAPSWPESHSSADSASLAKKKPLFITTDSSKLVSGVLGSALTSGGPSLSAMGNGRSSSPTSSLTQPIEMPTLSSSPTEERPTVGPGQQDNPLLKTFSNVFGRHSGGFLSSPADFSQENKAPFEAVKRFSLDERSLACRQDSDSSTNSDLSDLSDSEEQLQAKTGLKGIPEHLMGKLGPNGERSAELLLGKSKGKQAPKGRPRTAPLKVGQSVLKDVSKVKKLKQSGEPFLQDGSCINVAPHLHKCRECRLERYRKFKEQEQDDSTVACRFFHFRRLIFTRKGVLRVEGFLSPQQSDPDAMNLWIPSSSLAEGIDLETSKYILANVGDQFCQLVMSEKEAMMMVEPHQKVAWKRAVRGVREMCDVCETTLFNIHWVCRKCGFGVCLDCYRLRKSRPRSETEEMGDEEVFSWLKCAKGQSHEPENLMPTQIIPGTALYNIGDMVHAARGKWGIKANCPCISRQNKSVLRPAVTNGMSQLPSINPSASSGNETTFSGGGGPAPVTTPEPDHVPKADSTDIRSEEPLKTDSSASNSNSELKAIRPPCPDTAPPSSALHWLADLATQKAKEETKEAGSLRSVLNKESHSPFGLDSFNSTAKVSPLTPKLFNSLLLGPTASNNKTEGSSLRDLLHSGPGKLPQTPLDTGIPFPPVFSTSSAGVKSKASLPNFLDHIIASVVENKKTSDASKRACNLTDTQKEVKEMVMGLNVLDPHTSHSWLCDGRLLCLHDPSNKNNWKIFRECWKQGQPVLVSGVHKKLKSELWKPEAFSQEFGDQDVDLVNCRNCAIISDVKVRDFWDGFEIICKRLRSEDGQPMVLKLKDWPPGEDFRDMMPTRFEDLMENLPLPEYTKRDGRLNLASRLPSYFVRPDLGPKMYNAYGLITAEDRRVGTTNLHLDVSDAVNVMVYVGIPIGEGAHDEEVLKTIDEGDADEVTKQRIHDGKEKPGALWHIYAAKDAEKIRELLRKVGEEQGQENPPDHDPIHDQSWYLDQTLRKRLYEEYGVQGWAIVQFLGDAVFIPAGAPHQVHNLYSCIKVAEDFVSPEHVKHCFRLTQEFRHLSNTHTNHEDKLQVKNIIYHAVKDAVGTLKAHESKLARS
UniProt O15054, whole entry: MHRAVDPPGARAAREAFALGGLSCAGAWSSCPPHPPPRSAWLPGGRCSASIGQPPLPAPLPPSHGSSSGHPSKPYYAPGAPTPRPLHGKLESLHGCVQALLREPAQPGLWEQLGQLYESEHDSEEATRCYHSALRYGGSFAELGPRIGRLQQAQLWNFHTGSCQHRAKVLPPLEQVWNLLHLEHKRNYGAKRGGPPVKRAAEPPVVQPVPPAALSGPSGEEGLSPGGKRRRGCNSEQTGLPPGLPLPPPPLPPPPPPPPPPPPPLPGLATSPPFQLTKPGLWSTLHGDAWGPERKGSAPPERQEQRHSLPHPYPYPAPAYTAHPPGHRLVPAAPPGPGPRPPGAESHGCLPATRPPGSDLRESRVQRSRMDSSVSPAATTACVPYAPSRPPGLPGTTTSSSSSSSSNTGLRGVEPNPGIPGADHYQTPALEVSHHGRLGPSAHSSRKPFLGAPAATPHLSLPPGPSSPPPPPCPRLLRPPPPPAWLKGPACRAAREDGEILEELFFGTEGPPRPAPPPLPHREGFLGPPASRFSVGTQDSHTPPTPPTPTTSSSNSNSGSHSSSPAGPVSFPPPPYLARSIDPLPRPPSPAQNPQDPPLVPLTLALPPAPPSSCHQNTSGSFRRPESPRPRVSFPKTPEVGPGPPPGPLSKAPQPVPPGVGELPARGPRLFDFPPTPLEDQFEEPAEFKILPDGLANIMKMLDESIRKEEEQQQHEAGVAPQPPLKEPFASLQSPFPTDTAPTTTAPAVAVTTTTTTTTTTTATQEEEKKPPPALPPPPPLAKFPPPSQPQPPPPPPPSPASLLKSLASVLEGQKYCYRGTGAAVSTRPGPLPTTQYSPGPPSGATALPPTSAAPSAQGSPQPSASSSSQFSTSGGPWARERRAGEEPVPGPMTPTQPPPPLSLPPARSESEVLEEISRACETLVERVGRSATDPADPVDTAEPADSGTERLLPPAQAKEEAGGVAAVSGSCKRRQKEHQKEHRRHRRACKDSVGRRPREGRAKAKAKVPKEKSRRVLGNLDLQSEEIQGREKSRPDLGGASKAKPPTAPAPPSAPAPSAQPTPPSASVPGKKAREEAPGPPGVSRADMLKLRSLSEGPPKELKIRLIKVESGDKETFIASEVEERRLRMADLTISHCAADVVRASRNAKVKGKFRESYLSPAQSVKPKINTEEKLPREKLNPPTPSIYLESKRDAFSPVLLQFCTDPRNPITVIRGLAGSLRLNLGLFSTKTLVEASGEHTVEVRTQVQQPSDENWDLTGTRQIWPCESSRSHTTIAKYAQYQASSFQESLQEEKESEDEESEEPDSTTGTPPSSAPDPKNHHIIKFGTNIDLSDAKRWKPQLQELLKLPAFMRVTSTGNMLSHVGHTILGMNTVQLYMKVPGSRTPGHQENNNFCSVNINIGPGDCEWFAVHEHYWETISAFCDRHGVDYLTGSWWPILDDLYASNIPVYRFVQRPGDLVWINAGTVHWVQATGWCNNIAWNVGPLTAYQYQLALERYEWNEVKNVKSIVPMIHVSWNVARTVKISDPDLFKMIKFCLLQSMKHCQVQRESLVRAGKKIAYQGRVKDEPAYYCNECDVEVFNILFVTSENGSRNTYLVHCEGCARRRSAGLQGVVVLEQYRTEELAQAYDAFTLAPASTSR

KDM5A (JARID1A) = molecular target: T2, KDM5A (JARID1A) (Homo sapiens, UniProt P29375); assay: Eurofins histone lysine demethylase panel, enzymatic inhibition, substrate H3K4me3
T2 construct: The enzymatic activity of each of the full length protein was analyzed using known substrates; purchased Eurofins

KDM3B (JMJD1B) = molecular target: T3, KDM3B (JMJD1B) (Homo sapiens, UniProt Q7LBC6); assay: Eurofins histone lysine demethylase panel, enzymatic inhibition, substrate H3K9me1/2(3)
T3 construct: The enzymatic activity of each of the full length protein was analyzed using known substrates; purchased Eurofins
Experimental: PFI-63 was sent to Eurofins (www.eurofins.com) for direct enzymatic inhibition activity analysis. The enzymatic activity of each of the full length protein was analyzed using known substrates such as methylated lysines. The proteins were treated with various concentrations of PFI-63. As described above, PFI-90 inhibitory activity was determined by Eurofins using enzymatic inhibition activity analysis of a panel of histone demethylases.

KDM6B (JMJD3) = molecular target: T4, KDM6B (JMJD3) (Homo sapiens, UniProt O15054); assay: Eurofins histone lysine demethylase panel, enzymatic inhibition, substrate H3K27me3
T4 construct: The enzymatic activity of each of the full length protein was analyzed using known substrates; purchased Eurofins

## O=C(NNc1ccccn1)c1ccccn1 [PFI-90]
KDM4B (JMJD2B); 1.0E−05 M
  MEAN INHIBITION (%): 82.94% and 82.9%
KDM4B (JMJD2B); 1.0E−06 M
  MEAN INHIBITION (%): 38.5%
KDM4B (JMJD2B); 1.3E−06 M
  MEAN INHIBITION (%): 38.48%
KDM4B (JMJD2B); 1.6E−07 M
  MEAN INHIBITION (%): 16.27%
KDM4B (JMJD2B); 2.5E−06 M
  MEAN INHIBITION (%): 52.51%
KDM4B (JMJD2B); 3.1E−07 M
  MEAN INHIBITION (%): 11.55%
KDM4B (JMJD2B); 5.0E−06 M
  MEAN INHIBITION (%): 71.59%
KDM4B (JMJD2B); 6.3E−07 M
  MEAN INHIBITION (%): 27.94%
KDM4B (JMJD2B); 7.8E−08 M
  MEAN INHIBITION (%): 41.56%
KDM5A (JARID1A); 1.0E−05 M
  MEAN INHIBITION (%): 83.32% and 83.3%
KDM5A (JARID1A); 1.0E−06 M
  MEAN INHIBITION (%): 20.2%
KDM5A (JARID1A); 1.3E−06 M
  MEAN INHIBITION (%): 20.23%
KDM5A (JARID1A); 1.6E−07 M
  MEAN INHIBITION (%): 2.33%
KDM5A (JARID1A); 2.5E−06 M
  MEAN INHIBITION (%): 51.29%
KDM5A (JARID1A); 3.1E−07 M
  MEAN INHIBITION (%): 7.18%
KDM5A (JARID1A); 5.0E−06 M
  MEAN INHIBITION (%): 64.60%
KDM5A (JARID1A); 6.3E−07 M
  MEAN INHIBITION (%): 15.42%
KDM5A (JARID1A); 7.8E−08 M
  MEAN INHIBITION (%): −10.90%
KDM3B (JMJD1B); 1.0E−05 M
  MEAN INHIBITION (%): 87.14% and 87.1%
KDM3B (JMJD1B); 1.0E−06 M
  MEAN INHIBITION (%): 55.5%
KDM3B (JMJD1B); 1.3E−06 M
  MEAN INHIBITION (%): 55.46%
KDM3B (JMJD1B); 1.6E−07 M
  MEAN INHIBITION (%): 24.47%
KDM3B (JMJD1B); 2.5E−06 M
  MEAN INHIBITION (%): 70.58%
KDM3B (JMJD1B); 3.1E−07 M
  MEAN INHIBITION (%): 30.81%
KDM3B (JMJD1B); 5.0E−06 M
  MEAN INHIBITION (%): 81.56%
KDM3B (JMJD1B); 6.3E−07 M
  MEAN INHIBITION (%): 36.89%
KDM3B (JMJD1B); 7.8E−08 M
  MEAN INHIBITION (%): 14.32%
KDM6B (JMJD3); 1.0E−05 M
  MEAN INHIBITION (%): 46.8%
KDM6B (JMJD3); 1.0E−06 M
  MEAN INHIBITION (%): 8.4%
KDM6B (JMJD3); 1.3E−06 M
  MEAN INHIBITION (%): 8.42%
KDM6B (JMJD3); 1.6E−07 M
  MEAN INHIBITION (%): 25.15%
KDM6B (JMJD3); 2.5E−06 M
  MEAN INHIBITION (%): 11.55%
KDM6B (JMJD3); 3.1E−07 M
  MEAN INHIBITION (%): −0.60%
KDM6B (JMJD3); 5.0E−06 M
  MEAN INHIBITION (%): 17.41%
KDM6B (JMJD3); 6.3E−07 M
  MEAN INHIBITION (%): 6.81%
KDM6B (JMJD3); 7.8E−08 M
  MEAN INHIBITION (%): 8.60%
